{"source": "PubChem BioAssay AID1259308 (NCATS, 2017)", "screen": "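Knock-downs that increase output of a recombinant reporter protein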 (primary screen)", "cell system": "human HEK293 embryonic kidney cells stably expressing firefly luciferase (HEK-CMV-Luc2-Hygro)", "knock-down reagent": "single siRNA against human genes, 0.8 pmol siRNA per well", "duration": "72 h", "read-out": "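Luciferase light (ONE-Glo) measured on one replicate plate set and viability (CellTiter-Glo) on the other, scaled to a negative control siRNA, with robust z-scores and luciferase per cell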", "direction": "total luciferase, z-score and total luciferase, % of control: higher = more reporter protein produced", "hit rule": "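Active when the median/MAD z-score for overall luciferase is greater than 3; a gene was taken forward for validation with new siRNAs if at least two of its three siRNAs passed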", "meaning of the calls": "active = raised luciferase; inactive = no rise", "note": "In all, the deposit lists about 59,000 reagents; this is an unselected part. About 1,510 of all reagents (2.6%) count as active. 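Calls use total luciferase alone and ignore viability, so some active siRNAs may act by altering cell number.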 Reagents against one gene are numbered here. Further read-outs or replicates are left out here."}
{"Target gene": "CSMD1 (CUB and Sushi multiple domains 1)", "siRNA no.": 1, "total luciferase, z-score": 1.16, "total luciferase, % of control": 105, "activity call": "inactive"}
{"Target gene": "CSMD1 (CUB and Sushi multiple domains 1)", "siRNA no.": 2, "total luciferase, z-score": 0.808, "total luciferase, % of control": 97.9, "activity call": "inactive"}
{"Target gene": "CSMD1 (CUB and Sushi multiple domains 1)", "siRNA no.": 3, "total luciferase, z-score": -0.138, "total luciferase, % of control": 79.2, "activity call": "inactive"}
{"Target gene": "DHRS4 (dehydrogenase/reductase 4)", "siRNA no.": 1, "total luciferase, z-score": -0.29, "total luciferase, % of control": 76.1, "activity call": "inactive"}
{"Target gene": "DHRS4 (dehydrogenase/reductase 4)", "siRNA no.": 2, "total luciferase, z-score": 0.0574, "total luciferase, % of control": 83, "activity call": "inactive"}
{"Target gene": "DHRS4 (dehydrogenase/reductase 4)", "siRNA no.": 3, "total luciferase, z-score": -0.439, "total luciferase, % of control": 73.1, "activity call": "inactive"}
{"Target gene": "CDIN1 (CDAN1 interacting nuclease 1)", "siRNA no.": 1, "total luciferase, z-score": 0.617, "total luciferase, % of control": 94.2, "activity call": "inactive"}
{"Target gene": "CDIN1 (CDAN1 interacting nuclease 1)", "siRNA no.": 2, "total luciferase, z-score": 2.57, "total luciferase, % of control": 133, "activity call": "inactive"}
{"Target gene": "CDIN1 (CDAN1 interacting nuclease 1)", "siRNA no.": 3, "total luciferase, z-score": 0.604, "total luciferase, % of control": 93.9, "activity call": "inactive"}
{"Target gene": "C16orf54 (chromosome 16 open reading frame 54)", "siRNA no.": 1, "total luciferase, z-score": 0.369, "total luciferase, % of control": 89.2, "activity call": "inactive"}
{"Target gene": "C16orf54 (chromosome 16 open reading frame 54)", "siRNA no.": 2, "total luciferase, z-score": -0.987, "total luciferase, % of control": 62.3, "activity call": "inactive"}
{"Target gene": "C16orf54 (chromosome 16 open reading frame 54)", "siRNA no.": 3, "total luciferase, z-score": 0.955, "total luciferase, % of control": 101, "activity call": "inactive"}
{"Target gene": "PLA2R1 (phospholipase A2 receptor 1)", "siRNA no.": 1, "total luciferase, z-score": 0.745, "total luciferase, % of control": 96.7, "activity call": "inactive"}
{"Target gene": "PLA2R1 (phospholipase A2 receptor 1)", "siRNA no.": 2, "total luciferase, z-score": 0.238, "total luciferase, % of control": 86.6, "activity call": "inactive"}
{"Target gene": "PLA2R1 (phospholipase A2 receptor 1)", "siRNA no.": 3, "total luciferase, z-score": -0.53, "total luciferase, % of control": 71.3, "activity call": "inactive"}

Continued, starting with the last 2 of the part before.
{"Target gene": "PLA2R1 (phospholipase A2 receptor 1)", "siRNA no.": 2, "total luciferase, z-score": 0.238, "total luciferase, % of control": 86.6, "activity call": "inactive"}
{"Target gene": "PLA2R1 (phospholipase A2 receptor 1)", "siRNA no.": 3, "total luciferase, z-score": -0.53, "total luciferase, % of control": 71.3, "activity call": "inactive"}
{"Target gene": "ST8SIA6 (ST8 alpha-N-acetyl-neuraminide alpha-2,8-sialyltransferase 6)", "siRNA no.": 1, "total luciferase, z-score": -0.302, "total luciferase, % of control": 75.9, "activity call": "inactive"}
{"Target gene": "ST8SIA6 (ST8 alpha-N-acetyl-neuraminide alpha-2,8-sialyltransferase 6)", "siRNA no.": 2, "total luciferase, z-score": 0.226, "total luciferase, % of control": 86.4, "activity call": "inactive"}
{"Target gene": "ST8SIA6 (ST8 alpha-N-acetyl-neuraminide alpha-2,8-sialyltransferase 6)", "siRNA no.": 3, "total luciferase, z-score": 3.37, "total luciferase, % of control": 149, "activity call": "active"}
{"Target gene": "LYLDT1 (lysosomal-lipid droplet tether 1)", "siRNA no.": 1, "total luciferase, z-score": 0.607, "total luciferase, % of control": 94, "activity call": "inactive"}
{"Target gene": "LYLDT1 (lysosomal-lipid droplet tether 1)", "siRNA no.": 2, "total luciferase, z-score": -1.11, "total luciferase, % of control": 59.7, "activity call": "inactive"}
{"Target gene": "LYLDT1 (lysosomal-lipid droplet tether 1)", "siRNA no.": 3, "total luciferase, z-score": -0.296, "total luciferase, % of control": 76, "activity call": "inactive"}
{"Target gene": "CCND3 (cyclin D3)", "siRNA no.": 1, "total luciferase, z-score": -1.22, "total luciferase, % of control": 57.5, "activity call": "inactive"}
{"Target gene": "CCND3 (cyclin D3)", "siRNA no.": 2, "total luciferase, z-score": 0.416, "total luciferase, % of control": 90.2, "activity call": "inactive"}
{"Target gene": "CCND3 (cyclin D3)", "siRNA no.": 3, "total luciferase, z-score": 0.265, "total luciferase, % of control": 87.2, "activity call": "inactive"}
{"Target gene": "LINC02363 (long independently transcribed non-coding RNA 2363)", "siRNA no.": 1, "total luciferase, z-score": -0.0776, "total luciferase, % of control": 80.3, "activity call": "inactive"}
{"Target gene": "LINC02363 (long independently transcribed non-coding RNA 2363)", "siRNA no.": 2, "total luciferase, z-score": -0.379, "total luciferase, % of control": 74.4, "activity call": "inactive"}
{"Target gene": "LINC02363 (long independently transcribed non-coding RNA 2363)", "siRNA no.": 3, "total luciferase, z-score": 0.424, "total luciferase, % of control": 90.3, "activity call": "inactive"}
{"Target gene": "FZD5 (frizzled class receptor 5)", "siRNA no.": 1, "total luciferase, z-score": 0.882, "total luciferase, % of control": 99.4, "activity call": "inactive"}
{"Target gene": "FZD5 (frizzled class receptor 5)", "siRNA no.": 2, "total luciferase, z-score": 0.399, "total luciferase, % of control": 89.8, "activity call": "inactive"}
{"Target gene": "FZD5 (frizzled class receptor 5)", "siRNA no.": 3, "total luciferase, z-score": 2.26, "total luciferase, % of control": 127, "activity call": "inactive"}
{"Target gene": "GOLGA8A (golgin A8 family member A)", "siRNA no.": 1, "total luciferase, z-score": -1.1, "total luciferase, % of control": 59.9, "activity call": "inactive"}
{"Target gene": "GOLGA8A (golgin A8 family member A)", "siRNA no.": 2, "total luciferase, z-score": 0.182, "total luciferase, % of control": 85.5, "activity call": "inactive"}
{"Target gene": "GOLGA8A (golgin A8 family member A)", "siRNA no.": 3, "total luciferase, z-score": -1.35, "total luciferase, % of control": 55, "activity call": "inactive"}
